Assay results: paper PMC11554305, “Functional identification of soluble uric acid as an endogenous inhibitor of CD38” (eLife, 2024)

Test: Tissue sUA levels in WT mice
Assay type: in vivo, mouse
Conditions: 1-day treatment of saline

Which “Tissue sUA” value (Brain) does the source give for `O=c1[nH]c(=O)c2[nH]c(=O)[nH]c2[nH]1` [sUA, uric acid] here?
Its value is 9.8 µmol/kg.

And the “Tissue sUA” value (Heart)?
Its value is 25.2 µmol/kg.

And the “Tissue sUA” value (Ileum)?
The value was 226.2 µmol/kg.

And the “Tissue sUA” value (Kidney)?
Its value is 26.0 µmol/kg.

And the “Tissue sUA” value (Liver)?
The value was 233.4 µmol/kg.

And the “Tissue sUA” value (Lung)?
Its value is 364.6 µmol/kg.

And the “Tissue sUA” value (Skeletal Muscle)?
The value was 19.1 µmol/kg.

What about the “Tissue sUA” value (Spleen) of the same compound?
The value was 83.3 µmol/kg.
